Results reported in PMC10017463.
No constants are given. Whether binding was seen depends on the method and setting. In cells and extracts the contact can be indirect. Some binding calls cover weakened binding; strength is not graded here.

Protein sequences, listed by entry. Tags and fused reporters are not part of them.
UniProt Q14247: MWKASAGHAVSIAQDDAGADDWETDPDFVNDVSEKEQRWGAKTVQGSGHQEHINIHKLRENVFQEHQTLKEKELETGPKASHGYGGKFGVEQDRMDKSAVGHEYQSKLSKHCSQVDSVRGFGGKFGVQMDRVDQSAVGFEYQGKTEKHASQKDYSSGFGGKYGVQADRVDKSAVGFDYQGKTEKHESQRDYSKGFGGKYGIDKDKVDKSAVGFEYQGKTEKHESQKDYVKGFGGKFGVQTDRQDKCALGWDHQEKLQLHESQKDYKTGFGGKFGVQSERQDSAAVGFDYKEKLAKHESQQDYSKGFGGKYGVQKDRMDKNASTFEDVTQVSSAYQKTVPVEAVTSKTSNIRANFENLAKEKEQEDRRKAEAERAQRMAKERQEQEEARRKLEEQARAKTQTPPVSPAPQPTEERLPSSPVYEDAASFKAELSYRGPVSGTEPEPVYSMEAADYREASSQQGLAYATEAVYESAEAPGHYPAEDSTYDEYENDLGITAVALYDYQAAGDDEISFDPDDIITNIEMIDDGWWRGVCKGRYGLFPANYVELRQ

T1: VE-cadherin (human (endogenous in HUVEC)) (UniProt P33151)
T1 sequence: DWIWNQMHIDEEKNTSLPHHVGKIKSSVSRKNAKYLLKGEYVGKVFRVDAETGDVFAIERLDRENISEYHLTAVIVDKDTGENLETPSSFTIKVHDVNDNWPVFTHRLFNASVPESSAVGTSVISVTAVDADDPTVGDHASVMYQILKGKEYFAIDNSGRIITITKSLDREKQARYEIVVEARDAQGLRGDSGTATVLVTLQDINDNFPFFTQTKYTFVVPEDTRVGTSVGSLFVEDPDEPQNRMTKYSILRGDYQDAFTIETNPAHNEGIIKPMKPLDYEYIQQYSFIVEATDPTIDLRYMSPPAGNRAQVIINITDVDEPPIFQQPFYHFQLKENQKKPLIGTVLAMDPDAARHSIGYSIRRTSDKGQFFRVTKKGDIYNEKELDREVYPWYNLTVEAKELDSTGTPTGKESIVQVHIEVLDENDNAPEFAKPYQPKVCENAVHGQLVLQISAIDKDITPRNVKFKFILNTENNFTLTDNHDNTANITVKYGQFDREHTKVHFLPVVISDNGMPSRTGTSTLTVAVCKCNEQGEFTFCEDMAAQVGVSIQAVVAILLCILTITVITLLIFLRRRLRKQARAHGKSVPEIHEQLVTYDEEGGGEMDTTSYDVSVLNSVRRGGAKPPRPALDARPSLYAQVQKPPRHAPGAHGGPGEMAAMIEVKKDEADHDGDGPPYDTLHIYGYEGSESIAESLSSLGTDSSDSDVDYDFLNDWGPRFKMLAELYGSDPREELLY

T2: VE-cadherin (human (endogenous in HUVEC)), P33151
T2 chain: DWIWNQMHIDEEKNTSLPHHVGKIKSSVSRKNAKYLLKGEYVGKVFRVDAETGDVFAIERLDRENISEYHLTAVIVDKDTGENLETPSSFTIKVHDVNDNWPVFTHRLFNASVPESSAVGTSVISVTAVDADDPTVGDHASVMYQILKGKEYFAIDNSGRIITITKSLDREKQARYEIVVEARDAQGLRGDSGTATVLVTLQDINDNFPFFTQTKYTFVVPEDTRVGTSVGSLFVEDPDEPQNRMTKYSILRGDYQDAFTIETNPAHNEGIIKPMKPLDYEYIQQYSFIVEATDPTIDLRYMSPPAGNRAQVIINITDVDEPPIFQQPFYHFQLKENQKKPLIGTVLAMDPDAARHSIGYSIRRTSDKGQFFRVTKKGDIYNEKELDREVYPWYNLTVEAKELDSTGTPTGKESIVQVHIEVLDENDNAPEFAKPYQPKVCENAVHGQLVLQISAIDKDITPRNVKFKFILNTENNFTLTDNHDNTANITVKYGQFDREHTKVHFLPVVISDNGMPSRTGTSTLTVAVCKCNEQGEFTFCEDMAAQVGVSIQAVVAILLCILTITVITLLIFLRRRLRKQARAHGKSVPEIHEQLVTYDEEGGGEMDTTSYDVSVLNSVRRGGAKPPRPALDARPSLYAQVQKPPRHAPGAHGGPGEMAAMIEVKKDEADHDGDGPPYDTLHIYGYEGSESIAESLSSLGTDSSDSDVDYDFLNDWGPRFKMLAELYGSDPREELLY


How the values were obtained:
[1] = target: T1, VE-cadherin (human (endogenous in HUVEC)); test: co-IP; VE-cadherin precipitated from HUVEC cell lysates (shScramble, shPRKD1 stable knockdown lines, or cells treated with the PRKD inhibitor CRT0066101, 5 µM); coprecipitated partners detected by Western blot
[2] = target: T2, VE-cadherin (human (endogenous in …)); test: as above; details: remark: other sources report otherwise

binding [1] | binding [2] | Molecule
binds | – | Cortactin (from UniProt Q14247 1-550)
– | binds | β-catenin, P35222 1-781 (protein) MATQADLMELDMAMEPDRKAAVSHWQQQSYLDSGIHSGATTTAPSLSGKGNPEEEDVDTSQVLYEWEQGFSQSFTQEQVADIDGQYAMTRAQRVRAAMFPETLDEGMQIPSTQFDAAHPTNVQRLAEPSQMLKHAVVNLINYQDDAELATRAIPELTKLLNDEDQVVVNKAAVMVHQLSKKEASRHAIMRSPQMVSAIVRTMQNTNDVETARCTAGTLHNLSHHREGLLAIFKSGGIPALVKMLGSPVDSVLFYAITTLHNLLLHQEGAKMAVRLAGGLQKMVALLNKTNVKFLAITTDCLQILAYGNQESKLIILASGGPQALVNIMRTYTYEKLLWTTSRVLKVLSVCSSNKPAIVEAGGMQALGLHLTDPSQRLVQNCLWTLRNLSDAATKQEGMEGLLGTLVQLLGSDDINVVTCAAGILSNLTCNNYKNKMMVCQVGGIEALVRTVLRAGDREDITEPAICALRHLTSRHQEAEMAQNAVRLHYGLPVVVKLLHPPSHWPLIKATVGLIRNLALCPANHAPLREQGAIPRLVQLLVRAHQDTQRRTSMGGTQQQFVEGVRMEEIVEGCTGALHILARDVHNRIVIRGLNTIPLFVQLLYSPIENIQRVAAGVLCELAQDKEAAEAIEAEGATAPLTELLHSRNEGVATYAAAVLFRMSEDKPQDYKKRLSVELTSSLFRTEPMAWNETADLGLDIGAQGEPLGYRQDDPSYRSFHSGGYGQDALGMDPMMEHEMGGHHPGADYPVDGLPDLGHAQDLMDGLPPGDSNQLAWFDTDL
